Laboratory results from PMC6479050.
These are yes or no findings as the source states them, for the method shown. Binding seen in cells or lysates may run through a third protein. These calls come from enrichment with a bait or labelling near it, and not all partners need be listed. No binding means not detected with the bait.

Protein sequences, listed by entry. Tags and fused reporters are not part of them.
UniProt Q9H8M2: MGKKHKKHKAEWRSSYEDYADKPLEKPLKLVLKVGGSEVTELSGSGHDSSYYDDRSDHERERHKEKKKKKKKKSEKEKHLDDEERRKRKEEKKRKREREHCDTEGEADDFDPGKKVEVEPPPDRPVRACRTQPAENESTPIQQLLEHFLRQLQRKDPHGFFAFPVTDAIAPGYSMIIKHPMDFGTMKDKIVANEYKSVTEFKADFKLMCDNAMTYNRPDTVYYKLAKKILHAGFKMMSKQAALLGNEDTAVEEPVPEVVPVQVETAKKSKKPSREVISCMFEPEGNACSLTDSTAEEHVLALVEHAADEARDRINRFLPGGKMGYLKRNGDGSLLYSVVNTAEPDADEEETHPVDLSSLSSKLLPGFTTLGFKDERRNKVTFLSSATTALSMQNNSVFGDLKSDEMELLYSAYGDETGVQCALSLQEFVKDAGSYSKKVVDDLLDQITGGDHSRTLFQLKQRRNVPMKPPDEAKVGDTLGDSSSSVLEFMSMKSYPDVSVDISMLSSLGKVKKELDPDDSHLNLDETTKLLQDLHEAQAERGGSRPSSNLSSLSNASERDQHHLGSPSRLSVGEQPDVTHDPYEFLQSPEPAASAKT
UniProt O14497: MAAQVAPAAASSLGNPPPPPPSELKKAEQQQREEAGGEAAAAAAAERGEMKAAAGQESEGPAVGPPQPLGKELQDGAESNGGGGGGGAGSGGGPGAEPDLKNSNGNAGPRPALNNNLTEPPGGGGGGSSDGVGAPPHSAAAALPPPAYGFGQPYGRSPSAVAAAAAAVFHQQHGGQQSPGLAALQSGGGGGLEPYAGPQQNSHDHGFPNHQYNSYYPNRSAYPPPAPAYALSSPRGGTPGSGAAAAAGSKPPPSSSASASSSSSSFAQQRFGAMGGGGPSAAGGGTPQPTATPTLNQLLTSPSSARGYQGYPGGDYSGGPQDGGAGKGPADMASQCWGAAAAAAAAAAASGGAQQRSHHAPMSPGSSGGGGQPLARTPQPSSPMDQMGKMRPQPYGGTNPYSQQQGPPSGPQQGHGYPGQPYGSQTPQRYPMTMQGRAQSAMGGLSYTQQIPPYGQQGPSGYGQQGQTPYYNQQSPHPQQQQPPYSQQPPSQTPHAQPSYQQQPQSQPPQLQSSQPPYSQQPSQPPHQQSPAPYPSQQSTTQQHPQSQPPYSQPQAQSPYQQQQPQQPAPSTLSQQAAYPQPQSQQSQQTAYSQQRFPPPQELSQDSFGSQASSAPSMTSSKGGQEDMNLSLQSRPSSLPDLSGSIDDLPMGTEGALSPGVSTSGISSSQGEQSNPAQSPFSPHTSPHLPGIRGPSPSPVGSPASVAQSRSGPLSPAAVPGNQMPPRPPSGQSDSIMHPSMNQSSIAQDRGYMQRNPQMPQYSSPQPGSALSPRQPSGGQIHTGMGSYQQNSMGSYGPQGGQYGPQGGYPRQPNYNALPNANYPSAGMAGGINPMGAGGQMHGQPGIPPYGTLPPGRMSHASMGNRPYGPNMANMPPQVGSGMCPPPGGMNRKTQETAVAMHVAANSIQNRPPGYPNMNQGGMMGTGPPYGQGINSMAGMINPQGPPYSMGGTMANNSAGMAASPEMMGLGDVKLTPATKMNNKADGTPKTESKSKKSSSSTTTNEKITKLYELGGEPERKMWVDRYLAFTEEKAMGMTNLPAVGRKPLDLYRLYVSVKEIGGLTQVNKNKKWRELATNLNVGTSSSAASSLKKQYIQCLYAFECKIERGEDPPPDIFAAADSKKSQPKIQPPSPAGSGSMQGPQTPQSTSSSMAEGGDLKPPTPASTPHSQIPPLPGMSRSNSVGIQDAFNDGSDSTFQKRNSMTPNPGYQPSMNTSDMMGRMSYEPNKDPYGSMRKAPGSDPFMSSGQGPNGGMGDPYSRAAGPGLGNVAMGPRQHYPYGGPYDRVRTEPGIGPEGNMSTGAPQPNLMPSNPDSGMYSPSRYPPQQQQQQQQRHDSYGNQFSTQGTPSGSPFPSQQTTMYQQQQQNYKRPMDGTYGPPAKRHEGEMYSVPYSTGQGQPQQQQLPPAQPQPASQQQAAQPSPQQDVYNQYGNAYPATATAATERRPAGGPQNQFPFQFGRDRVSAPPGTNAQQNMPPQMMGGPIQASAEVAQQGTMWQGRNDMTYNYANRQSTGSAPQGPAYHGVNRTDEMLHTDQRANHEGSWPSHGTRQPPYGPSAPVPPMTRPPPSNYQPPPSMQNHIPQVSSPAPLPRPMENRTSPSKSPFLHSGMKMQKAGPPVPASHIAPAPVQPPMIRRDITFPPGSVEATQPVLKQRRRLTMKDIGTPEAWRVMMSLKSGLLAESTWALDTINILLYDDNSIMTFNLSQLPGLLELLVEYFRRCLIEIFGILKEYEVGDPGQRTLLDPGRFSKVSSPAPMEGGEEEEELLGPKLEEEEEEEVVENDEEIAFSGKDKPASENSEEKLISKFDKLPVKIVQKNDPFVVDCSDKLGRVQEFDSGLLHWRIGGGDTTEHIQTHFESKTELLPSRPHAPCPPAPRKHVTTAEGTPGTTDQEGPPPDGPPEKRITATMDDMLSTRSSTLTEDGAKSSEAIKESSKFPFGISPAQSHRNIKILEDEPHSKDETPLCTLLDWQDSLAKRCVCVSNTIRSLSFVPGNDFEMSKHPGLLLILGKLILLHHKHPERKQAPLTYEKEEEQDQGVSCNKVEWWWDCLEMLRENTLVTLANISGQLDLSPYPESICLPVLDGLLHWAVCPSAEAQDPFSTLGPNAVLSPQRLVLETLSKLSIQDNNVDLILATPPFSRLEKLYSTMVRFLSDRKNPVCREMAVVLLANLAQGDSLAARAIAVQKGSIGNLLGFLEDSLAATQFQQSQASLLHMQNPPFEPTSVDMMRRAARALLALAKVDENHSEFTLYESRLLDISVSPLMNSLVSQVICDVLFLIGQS
UniProt Q86U86: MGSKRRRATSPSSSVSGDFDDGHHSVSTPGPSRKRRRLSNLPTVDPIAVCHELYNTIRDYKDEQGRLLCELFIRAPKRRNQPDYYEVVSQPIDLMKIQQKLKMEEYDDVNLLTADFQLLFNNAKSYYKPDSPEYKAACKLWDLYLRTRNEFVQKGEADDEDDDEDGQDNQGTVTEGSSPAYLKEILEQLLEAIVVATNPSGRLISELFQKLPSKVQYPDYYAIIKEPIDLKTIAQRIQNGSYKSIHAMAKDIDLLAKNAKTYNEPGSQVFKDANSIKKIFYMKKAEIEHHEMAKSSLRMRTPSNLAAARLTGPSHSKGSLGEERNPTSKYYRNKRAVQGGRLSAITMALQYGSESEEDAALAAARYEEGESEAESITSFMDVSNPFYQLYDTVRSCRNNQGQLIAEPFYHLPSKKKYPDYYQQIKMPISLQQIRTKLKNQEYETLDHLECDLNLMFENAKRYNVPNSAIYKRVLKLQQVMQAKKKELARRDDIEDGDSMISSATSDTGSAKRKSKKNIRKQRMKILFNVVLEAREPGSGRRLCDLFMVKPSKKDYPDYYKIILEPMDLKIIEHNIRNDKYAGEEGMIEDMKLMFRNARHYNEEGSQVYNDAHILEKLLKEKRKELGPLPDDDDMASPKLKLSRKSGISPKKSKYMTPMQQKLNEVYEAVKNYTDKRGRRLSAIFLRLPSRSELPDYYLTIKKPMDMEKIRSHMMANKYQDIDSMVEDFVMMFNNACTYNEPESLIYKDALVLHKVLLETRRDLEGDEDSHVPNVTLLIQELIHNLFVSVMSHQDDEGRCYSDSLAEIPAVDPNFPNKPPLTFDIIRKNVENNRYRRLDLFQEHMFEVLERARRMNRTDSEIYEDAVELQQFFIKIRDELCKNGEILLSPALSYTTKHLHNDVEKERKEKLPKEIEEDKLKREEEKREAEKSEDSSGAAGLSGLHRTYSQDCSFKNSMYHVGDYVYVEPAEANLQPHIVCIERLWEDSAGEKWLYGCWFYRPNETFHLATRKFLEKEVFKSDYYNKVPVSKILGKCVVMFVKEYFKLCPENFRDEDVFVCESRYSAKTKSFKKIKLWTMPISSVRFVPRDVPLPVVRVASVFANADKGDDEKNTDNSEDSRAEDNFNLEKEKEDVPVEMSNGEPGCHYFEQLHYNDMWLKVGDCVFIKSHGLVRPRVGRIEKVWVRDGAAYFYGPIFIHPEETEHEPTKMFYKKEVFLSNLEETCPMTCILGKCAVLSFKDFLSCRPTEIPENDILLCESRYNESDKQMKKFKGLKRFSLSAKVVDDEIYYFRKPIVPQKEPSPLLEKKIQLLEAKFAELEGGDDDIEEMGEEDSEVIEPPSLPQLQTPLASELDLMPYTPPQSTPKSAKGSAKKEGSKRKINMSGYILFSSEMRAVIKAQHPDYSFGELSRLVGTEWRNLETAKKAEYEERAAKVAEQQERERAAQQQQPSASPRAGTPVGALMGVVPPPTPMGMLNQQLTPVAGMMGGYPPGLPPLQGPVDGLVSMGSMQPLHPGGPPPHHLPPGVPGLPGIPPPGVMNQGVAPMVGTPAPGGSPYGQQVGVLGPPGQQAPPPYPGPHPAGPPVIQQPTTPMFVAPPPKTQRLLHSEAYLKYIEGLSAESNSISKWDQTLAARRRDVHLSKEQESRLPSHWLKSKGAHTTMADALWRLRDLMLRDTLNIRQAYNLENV
UniProt Q9NZM4: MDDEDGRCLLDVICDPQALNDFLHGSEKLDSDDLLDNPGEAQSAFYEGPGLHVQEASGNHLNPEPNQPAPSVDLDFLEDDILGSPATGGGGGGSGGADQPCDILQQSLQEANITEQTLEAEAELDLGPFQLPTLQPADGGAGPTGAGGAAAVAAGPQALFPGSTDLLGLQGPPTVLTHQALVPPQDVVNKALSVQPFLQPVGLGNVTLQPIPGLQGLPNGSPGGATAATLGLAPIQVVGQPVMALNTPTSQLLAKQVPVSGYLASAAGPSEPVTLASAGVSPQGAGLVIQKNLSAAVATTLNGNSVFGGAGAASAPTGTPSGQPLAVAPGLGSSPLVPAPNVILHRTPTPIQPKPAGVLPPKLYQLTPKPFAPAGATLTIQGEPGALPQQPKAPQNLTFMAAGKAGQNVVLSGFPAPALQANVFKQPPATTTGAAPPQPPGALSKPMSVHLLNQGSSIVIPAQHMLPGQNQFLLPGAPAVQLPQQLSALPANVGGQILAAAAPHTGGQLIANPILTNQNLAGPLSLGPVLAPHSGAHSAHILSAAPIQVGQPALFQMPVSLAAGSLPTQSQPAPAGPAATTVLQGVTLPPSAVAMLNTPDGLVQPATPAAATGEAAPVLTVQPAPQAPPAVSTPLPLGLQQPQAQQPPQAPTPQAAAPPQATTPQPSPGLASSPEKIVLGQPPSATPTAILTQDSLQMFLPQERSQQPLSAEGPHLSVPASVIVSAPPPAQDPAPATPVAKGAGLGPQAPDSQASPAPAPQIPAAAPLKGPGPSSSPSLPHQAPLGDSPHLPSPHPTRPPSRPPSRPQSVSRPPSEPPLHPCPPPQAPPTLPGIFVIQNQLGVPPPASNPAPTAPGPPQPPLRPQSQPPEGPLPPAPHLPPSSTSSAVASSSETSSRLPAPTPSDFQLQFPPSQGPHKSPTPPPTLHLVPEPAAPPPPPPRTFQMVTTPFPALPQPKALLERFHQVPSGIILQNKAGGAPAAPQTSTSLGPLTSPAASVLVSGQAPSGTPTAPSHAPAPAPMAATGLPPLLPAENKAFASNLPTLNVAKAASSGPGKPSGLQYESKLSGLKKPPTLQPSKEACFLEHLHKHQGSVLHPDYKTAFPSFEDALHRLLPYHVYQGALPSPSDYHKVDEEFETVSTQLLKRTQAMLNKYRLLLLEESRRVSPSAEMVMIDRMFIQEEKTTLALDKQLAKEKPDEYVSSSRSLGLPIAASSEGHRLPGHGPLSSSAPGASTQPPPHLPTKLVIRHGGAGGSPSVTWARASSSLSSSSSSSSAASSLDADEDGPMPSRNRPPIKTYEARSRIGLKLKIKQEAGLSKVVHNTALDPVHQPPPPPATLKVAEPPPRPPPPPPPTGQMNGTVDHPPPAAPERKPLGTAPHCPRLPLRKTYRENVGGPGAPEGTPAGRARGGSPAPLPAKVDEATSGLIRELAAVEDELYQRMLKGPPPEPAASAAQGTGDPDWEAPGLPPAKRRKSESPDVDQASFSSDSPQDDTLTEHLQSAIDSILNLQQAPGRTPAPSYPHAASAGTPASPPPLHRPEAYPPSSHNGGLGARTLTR
UniProt Q969G3: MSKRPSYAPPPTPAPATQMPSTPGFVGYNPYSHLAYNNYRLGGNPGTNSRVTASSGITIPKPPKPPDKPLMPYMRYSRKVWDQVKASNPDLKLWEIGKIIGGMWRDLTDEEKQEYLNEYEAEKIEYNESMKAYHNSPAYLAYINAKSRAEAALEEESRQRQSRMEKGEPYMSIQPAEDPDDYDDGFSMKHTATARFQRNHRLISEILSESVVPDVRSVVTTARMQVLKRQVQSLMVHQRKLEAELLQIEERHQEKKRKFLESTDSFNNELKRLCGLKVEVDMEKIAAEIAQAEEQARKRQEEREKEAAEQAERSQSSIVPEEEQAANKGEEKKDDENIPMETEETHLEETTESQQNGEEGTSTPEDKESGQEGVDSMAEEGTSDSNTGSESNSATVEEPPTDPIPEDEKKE

What was measured:
[1] = molecular target: BRD9 with a C-terminal HA tag, exogenously expressed in G401 (UniProt Q9H8M2); assay: affinity purification with mass spectrometry; HA IP of exogenously expressed BRD9 with a C-terminal HA tag in G401 cells, mass spectrometry
[2] = molecular target: Bromodomain-containing protein 9 (BRD9) (human (endogenous in G401)) (UniProt Q9H8M2); assay: affinity purification with mass spectrometry; IP with antibodies to endogenous BRD9, ARID1A or PBRM1 from nuclear extract diluted to 150 mM salt, overnight at 4 °C, Protein G Dynabeads, RIPA washes, whole gel lane to mass spectrometry; four RT cell lines, three SMARCB1-WT cell lines, G401 without or with SMARCB1 re-expression
[3] = molecular target: ARID1A (human (endogenous in G401)) (UniProt O14497); assay: as above
[4] = molecular target: PBRM1 (human (endogenous in G401)) (UniProt Q86U86); assay: as above

Substance | binding [1] | binding [2] | binding [3] | binding [4]
ACTL6A (BAF53A) (from UniProt O96019 1-429) | binds | binds | – | –
BRD7 (from UniProt Q9NPI1 1-651) | no binding | no binding | – | –
Bromodomain-containing protein 9 (BRD9) (from UniProt Q9H8M2 1-597) | – | – | no binding | no binding
GLTSCR1 (also known as BICRA, BRD4 Interacting Chromatin-Remodeling Complex Associated Protein) (from UniProt Q9NZM4 1-1560) | binds | binds | no binding | no binding
PBRM1 (from UniProt Q86U86 1-1689) | no binding | no binding | – | –
SMARCA2 (BRM) (from UniProt P51531 1-1590) | binds | binds | – | –
SMARCA4 (BRG1) (from UniProt P51532 1-1647) | binds | binds | – | –
SMARCB1 (also known as SNF5, INI1, and BAF47), re-expressed in G401 (from UniProt Q12824 1-385) | – | no binding | – | –
SMARCC1 (BAF155) (from UniProt Q92922 1-1105) | binds | binds | – | –
SMARCC2 (BAF170) (from UniProt Q8TAQ2 1-1214) | no binding | no binding | – | –
SMARCD1 (BAF60A) (from UniProt Q96GM5 1-515) | binds | binds | – | –
SMARCE1 (BAF57) (from UniProt Q969G3 1-411) | no binding | no binding | – | –
